Experimental data: PubChem BioAssay AID1224830 (NIAID, 2016)
Here is one part, drawn at random, of about 18,000 deposited reagents. About 2,900 of all reagents (16%) count as active. 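Calls are made per well; low scores hint the gene aids the LPS response, high scores that it dampens it.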 Entries without a mark were called inactive. Repeated entries: four replicate wells of each siRNA pool.

Purpose: 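Regulators of TLR4 signalling towards TNF-alpha in macrophage-like cells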 (primary screen)
Cell system: human THP-1 monocytic leukaemia cells, TNF dual-luciferase reporter clone, PMA-differentiated to macrophage-like cells
Reagent: siRNA pool against human genes, 50 nM
Timing: LPS for 4 h, given about 3 days after siRNA transfection
Challenge: bacterial LPS (TLR4 ligand), 10 ng/ml
Measurement: 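TNF firefly reporter luminescence divided by renilla, normalised to the plate median, then turned into a robust z-score for each replicate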
Scale: TNF reporter robust z-score: higher = stronger TNF reporter response to LPS
Hit rule: 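Each well counts as active if its z-score is over 2.8 or under -1.5; controls are left without a call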

TNF reporter robust z-score	Target gene
0.37	RPL6 (ribosomal protein L6)
0.76	RPL6 (ribosomal protein L6)
0.21	RPL6 (ribosomal protein L6)
-0.02	RPL6 (ribosomal protein L6)
-0.67	RANBP9 (RAN binding protein 9)
-1.12	RANBP9 (RAN binding protein 9)
0.04	RANBP9 (RAN binding protein 9)
0.01	MST1 (macrophage stimulating 1)
0.32	MST1 (macrophage stimulating 1)
0.57	MST1 (macrophage stimulating 1)
0.09	MST1 (macrophage stimulating 1)
-1.55 (active)	WDR5 (WD repeat domain 5)
-1.26	WDR5 (WD repeat domain 5)
-1.41	WDR5 (WD repeat domain 5)
-1.32	WDR5 (WD repeat domain 5)
-1.46	TMEM161A (transmembrane protein 161A)
-0.47	TMEM161A (transmembrane protein 161A)
-1.67 (active)	TMEM161A (transmembrane protein 161A)
-0.66	TMEM161A (transmembrane protein 161A)
0.91	CLASP1 (cytoplasmic linker associated protein 1)
1.15	CLASP1 (cytoplasmic linker associated protein 1)
0.89	CLASP1 (cytoplasmic linker associated protein 1)
0.74	CLASP1 (cytoplasmic linker associated protein 1)
0.01	PTPN13 (protein tyrosine phosphatase non-receptor type 13)
-0.63	PTPN13 (protein tyrosine phosphatase non-receptor type 13)
0.23	PTPN13 (protein tyrosine phosphatase non-receptor type 13)
0.07	PTPN13 (protein tyrosine phosphatase non-receptor type 13)
-0.99	OGT (O-linked N-acetylglucosamine (GlcNAc) transferase)
-0.74	OGT (O-linked N-acetylglucosamine (GlcNAc) transferase)
-0.88	OGT (O-linked N-acetylglucosamine (GlcNAc) transferase)
-0.92	OGT (O-linked N-acetylglucosamine (GlcNAc) transferase)
0.02	CYB5B (cytochrome b5 type B)
-0.79	CYB5B (cytochrome b5 type B)
-0.25	CYB5B (cytochrome b5 type B)
0.78	CYB5B (cytochrome b5 type B)
0.83	PLEKHH3 (pleckstrin homology, MyTH4 and FERM domain containing H3)
-0.14	PLEKHH3 (pleckstrin homology, MyTH4 and FERM domain containing H3)
0.61	PLEKHH3 (pleckstrin homology, MyTH4 and FERM domain containing H3)
0.18	PLEKHH3 (pleckstrin homology, MyTH4 and FERM domain containing H3)
-0.4	KCNK7 (potassium two pore domain channel subfamily K member 7)
1.6	KCNK7 (potassium two pore domain channel subfamily K member 7)
0.78	KCNK7 (potassium two pore domain channel subfamily K member 7)
0.28	KCNK7 (potassium two pore domain channel subfamily K member 7)
0.86	HIF1A (hypoxia inducible factor 1 subunit alpha)
1.08	HIF1A (hypoxia inducible factor 1 subunit alpha)
-0.88	HIF1A (hypoxia inducible factor 1 subunit alpha)
0.51	HIF1A (hypoxia inducible factor 1 subunit alpha)
-0.87	MMUT (methylmalonyl-CoA mutase)
0.25	MMUT (methylmalonyl-CoA mutase)
-0.2	MMUT (methylmalonyl-CoA mutase)
-0.3	MMUT (methylmalonyl-CoA mutase)
-0.93	MTERF4 (mitochondrial transcription termination factor 4)
-1.79 (active)	MTERF4 (mitochondrial transcription termination factor 4)
-1.49	MTERF4 (mitochondrial transcription termination factor 4)
-1.31	MTERF4 (mitochondrial transcription termination factor 4)
0.48	SLC35F5
2.11	SLC35F5
3.55 (active)	SLC35F5
2.47	SLC35F5
-0.75	HRG (histidine rich glycoprotein)
-0.5	HRG (histidine rich glycoprotein)
-0.57	HRG (histidine rich glycoprotein)
-0.61	HRG (histidine rich glycoprotein)
0.65	ZSWIM7 (zinc finger SWIM-type containing 7)
1.84	ZSWIM7 (zinc finger SWIM-type containing 7)
0.66	ZSWIM7 (zinc finger SWIM-type containing 7)
0.24	ZSWIM7 (zinc finger SWIM-type containing 7)
0.38	CETP (cholesteryl ester transfer protein)
1.66	CETP (cholesteryl ester transfer protein)
0.42	CETP (cholesteryl ester transfer protein)
0.14	CETP (cholesteryl ester transfer protein)
-0.01	SRMS
-0.76	SRMS
-0.9	SRMS
-0.75	SRMS
1.75	GNGT1 (G protein subunit gamma transducin 1)
1.74	GNGT1 (G protein subunit gamma transducin 1)
0.95	GNGT1 (G protein subunit gamma transducin 1)
0.69	GNGT1 (G protein subunit gamma transducin 1)
-0.29	HAMP (hepcidin antimicrobial peptide)
2.47	HAMP (hepcidin antimicrobial peptide)
3.96 (active)	HAMP (hepcidin antimicrobial peptide)
1.01	HAMP (hepcidin antimicrobial peptide)
1.68	SMG7 (SMG7 nonsense mediated mRNA decay factor)
1.42	SMG7 (SMG7 nonsense mediated mRNA decay factor)
2.46	SMG7 (SMG7 nonsense mediated mRNA decay factor)
4.35 (active)	SMG7 (SMG7 nonsense mediated mRNA decay factor)
0.98	SEPTIN7 (septin 7)
0.79	SEPTIN7 (septin 7)
0.49	SEPTIN7 (septin 7)
1.13	SEPTIN7 (septin 7)
0.97	ABITRAM (actin binding transcription modulator)
0.71	ABITRAM (actin binding transcription modulator)
1.48	ABITRAM (actin binding transcription modulator)
1.1	ABITRAM (actin binding transcription modulator)
0.58	EEIG2 (EEIG family member 2)
0.8	EEIG2 (EEIG family member 2)
0.87	EEIG2 (EEIG family member 2)
-0.06	EEIG2 (EEIG family member 2)
-0.96	TEX26 (testis expressed 26)
-0.3	TEX26 (testis expressed 26)
-0.63	TEX26 (testis expressed 26)
0.71	TEX26 (testis expressed 26)
-0.15	MCHR2 (melanin concentrating hormone receptor 2)
1.53	MCHR2 (melanin concentrating hormone receptor 2)
-0.65	MCHR2 (melanin concentrating hormone receptor 2)
-0.95	MCHR2 (melanin concentrating hormone receptor 2)
-0.52	STX2 (syntaxin 2)
-0.11	STX2 (syntaxin 2)
-0.57	STX2 (syntaxin 2)
1.08	STX2 (syntaxin 2)
